Assay results reported in paper PMC4455107.

Sequences of proteins named here, by UniProt entry; tags and fusion partners are left off.
UniProt Q01650: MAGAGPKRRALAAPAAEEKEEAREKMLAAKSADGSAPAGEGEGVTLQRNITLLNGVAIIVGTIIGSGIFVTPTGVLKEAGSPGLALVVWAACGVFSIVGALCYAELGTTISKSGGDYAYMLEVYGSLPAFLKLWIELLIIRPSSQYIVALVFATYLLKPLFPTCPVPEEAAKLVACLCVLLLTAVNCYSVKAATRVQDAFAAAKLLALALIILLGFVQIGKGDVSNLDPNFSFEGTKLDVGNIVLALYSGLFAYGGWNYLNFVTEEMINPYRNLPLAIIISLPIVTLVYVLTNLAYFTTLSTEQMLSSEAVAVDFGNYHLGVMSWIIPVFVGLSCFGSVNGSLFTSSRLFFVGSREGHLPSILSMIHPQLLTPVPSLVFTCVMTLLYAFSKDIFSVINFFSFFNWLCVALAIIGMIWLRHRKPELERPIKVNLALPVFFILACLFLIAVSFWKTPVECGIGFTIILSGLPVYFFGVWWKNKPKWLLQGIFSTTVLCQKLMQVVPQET

Target: T1, HA-LAPTM4b (lysosomal-associated transmembrane protein 4b, 24-kDa isoform, wild type) (human) (UniProt Q86VI4)
T1 sequence: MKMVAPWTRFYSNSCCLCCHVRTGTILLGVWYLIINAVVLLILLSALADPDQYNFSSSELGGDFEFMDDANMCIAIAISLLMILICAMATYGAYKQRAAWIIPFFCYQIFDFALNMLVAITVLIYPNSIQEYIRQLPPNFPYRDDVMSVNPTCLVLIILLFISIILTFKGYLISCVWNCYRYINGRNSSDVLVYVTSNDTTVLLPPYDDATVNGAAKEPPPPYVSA
Experiment: affinity purification with mass spectrometry; HeLa cells transiently transfected with HA-LAPTM4b-WT for 48 h; lysis in 50 mM Hepes pH 7.5, 150 mM NaCl, 1% Triton X-100, 10% glycerol; IP with anti-HA agarose, 4 °C, 3 h; trypsin digest, shotgun LC-MS/MS

Row | Substance | binding
1 | endogenous 4F2hc/CD98 (SLC3A2) (from UniProt P08195 1-529) | binds
2 | endogenous LAT1 (SLC7A5) (from UniProt Q01650 1-507) | binds

These are yes or no findings as the source states them, for the method shown. In cells and extracts the contact can be indirect. A yes stands for co-enrichment or nearness to the bait. Other partners may have been found. Tags and fused reporters may be left off the sequences shown.
